Experimental data reported in publication doi:10.1101/832873.
No constants are given. Whether binding was seen depends on the method and setting. Binding seen in cells or lysates may run through a third protein. Some binding calls cover weakened binding; strength is not graded here.

Sequences of proteins named here, by UniProt entry; tags and fusion partners are left off.
UniProt P60122: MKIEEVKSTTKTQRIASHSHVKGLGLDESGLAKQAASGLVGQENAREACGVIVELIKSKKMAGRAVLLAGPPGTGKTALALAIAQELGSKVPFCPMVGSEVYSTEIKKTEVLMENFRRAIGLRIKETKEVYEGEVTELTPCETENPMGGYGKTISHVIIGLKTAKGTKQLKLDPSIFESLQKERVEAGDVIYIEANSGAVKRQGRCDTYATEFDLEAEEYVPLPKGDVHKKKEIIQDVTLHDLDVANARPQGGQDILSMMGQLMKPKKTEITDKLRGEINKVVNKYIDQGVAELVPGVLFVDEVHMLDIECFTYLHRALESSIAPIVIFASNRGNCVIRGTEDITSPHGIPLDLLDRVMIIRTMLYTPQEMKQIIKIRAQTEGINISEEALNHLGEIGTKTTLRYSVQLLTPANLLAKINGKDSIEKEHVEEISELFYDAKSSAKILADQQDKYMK

Target: T1, Dppa4 (Developmental Pluripotency Associated 4), endogenous (mouse (endogenous in E14 ESCs)) (UniProt Q8CCG4)
T1 sequence: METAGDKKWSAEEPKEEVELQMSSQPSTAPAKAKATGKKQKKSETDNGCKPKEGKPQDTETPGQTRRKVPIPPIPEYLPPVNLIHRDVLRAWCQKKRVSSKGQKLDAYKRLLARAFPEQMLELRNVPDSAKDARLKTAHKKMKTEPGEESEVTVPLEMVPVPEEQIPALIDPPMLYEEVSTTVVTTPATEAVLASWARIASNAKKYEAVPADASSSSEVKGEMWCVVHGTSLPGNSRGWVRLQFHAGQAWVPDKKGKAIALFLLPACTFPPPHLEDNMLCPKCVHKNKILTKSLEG
Test: co-IP

Ruvbl1 (from UniProt P60122 1-456)
binding: binds
